The exact form of at least one protein or probe is not confirmed.
Test system: BtgZI restriction endonuclease (Bacillus thermoglucosidasius 36A)
Assay: enzyme reaction in vitro
Settings: run-off sequencing of cleaved plasmid; NEBuffer 4, 37 C 1 h; purified native protein; only the site is given

| Sequence | activity on this sequence |
| --- | --- |
| TTCTTTCTGCGCGGTCAACTTTGTACCAATCATACATCGCCTGAG (double strand) | active |
| CGATGAGAATGCGATGTTGGTGGCCAAAAGCAATTATCC (double strand) | active |
